The target in this assay is HA-Cdh1 (UniProt Q9UM11). The experiment in a line: co-IP.

By UniProt entry, the sequences of proteins in these tests, tags left out.
UniProt Q9UM11: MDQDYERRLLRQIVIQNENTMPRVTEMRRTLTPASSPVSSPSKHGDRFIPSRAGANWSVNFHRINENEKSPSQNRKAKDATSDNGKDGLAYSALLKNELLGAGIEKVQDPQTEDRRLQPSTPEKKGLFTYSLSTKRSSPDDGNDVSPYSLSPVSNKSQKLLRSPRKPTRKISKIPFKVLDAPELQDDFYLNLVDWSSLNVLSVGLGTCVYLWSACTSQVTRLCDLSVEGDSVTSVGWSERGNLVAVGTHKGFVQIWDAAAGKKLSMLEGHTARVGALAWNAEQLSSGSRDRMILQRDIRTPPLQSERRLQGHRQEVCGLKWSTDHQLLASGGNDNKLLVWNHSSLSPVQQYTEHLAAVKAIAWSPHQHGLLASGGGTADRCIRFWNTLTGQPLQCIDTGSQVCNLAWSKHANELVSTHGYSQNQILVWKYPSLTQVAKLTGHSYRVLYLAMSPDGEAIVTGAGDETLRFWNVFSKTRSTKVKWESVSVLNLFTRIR

No constants are given. Whether binding was seen depends on the method and setting. In cells and extracts the contact can be indirect. Some entries that bind do so weakly or less than the wild type. Sequences can lack the tags named with a protein.

B1: Myc-UHRF1^WT (protein, UniProt Q96T88 1-793)
chain: MWIQVRTMDGRQTHTVDSLSRLTKVEELRRKIQELFHVEPGLQRLFYRGKQMEDGHTLFDYEVRLNDTIQLLVRQSLVLPHSTKERDSELSDTDSGCCLGQSESDKSSTHGEAAAETDSRPADEDMWDETELGLYKVNEYVDARDTNMGAWFEAQVVRVTRKAPSRDEPCSSTSRPALEEDVIYHVKYDDYPENGVVQMNSRDVRARARTIIKWQDLEVGQVVMLNYNPDNPKERGFWYDAEISRKRETRTARELYANVVLGDDSLNDCRIIFVDEVFKIERPGEGSPMVDNPMRRKSGPSCKHCKDDVNRLCRVCACHLCGGRQDPDKQLMCDECDMAFHIYCLDPPLSSVPSEDEWYCPECRNDASEVVLAGERLRESKKKAKMASATSSSQRDWGKGMACVGRTKECTIVPSNHYGPIPGIPVGTMWRFRVQVSESGVHRPHVAGIHGRSNDGAYSLVLAGGYEDDVDHGNFFTYTGSGGRDLSGNKRTAEQSCDQKLTNTNRALALNCFAPINDQEGAEAKDWRSGKPVRVVRNVKGGKNSKYAPAEGNRYDGIYKVVKYWPEKGKSGFLVWRYLLRRDDDEPGPWTKEGKDRIKKLGLTMQYPEGYLEALANREREKENSKREEEEQQEGGFASPRTGKGKWKRKSAGGGPSRAGSPRRTSKKTKVEPYSLTAQQSSLIREDKSNAKLWNEVLASLKDRPASGSPFQLFLSKVEETFQCICCQELVFRPITTVCQHNVCKDCLDRSFRAQVFSCPACRYDLGRSYAMQVNQPLQTVLNQLFPGYGNGR
Turning to B1, the binding result is “binds”.

The values are drawn from paper doi:10.1101/2020.04.09.033621.
